The assay concerns the target T1, Rad5 (yeast), P32849.
T1 chain: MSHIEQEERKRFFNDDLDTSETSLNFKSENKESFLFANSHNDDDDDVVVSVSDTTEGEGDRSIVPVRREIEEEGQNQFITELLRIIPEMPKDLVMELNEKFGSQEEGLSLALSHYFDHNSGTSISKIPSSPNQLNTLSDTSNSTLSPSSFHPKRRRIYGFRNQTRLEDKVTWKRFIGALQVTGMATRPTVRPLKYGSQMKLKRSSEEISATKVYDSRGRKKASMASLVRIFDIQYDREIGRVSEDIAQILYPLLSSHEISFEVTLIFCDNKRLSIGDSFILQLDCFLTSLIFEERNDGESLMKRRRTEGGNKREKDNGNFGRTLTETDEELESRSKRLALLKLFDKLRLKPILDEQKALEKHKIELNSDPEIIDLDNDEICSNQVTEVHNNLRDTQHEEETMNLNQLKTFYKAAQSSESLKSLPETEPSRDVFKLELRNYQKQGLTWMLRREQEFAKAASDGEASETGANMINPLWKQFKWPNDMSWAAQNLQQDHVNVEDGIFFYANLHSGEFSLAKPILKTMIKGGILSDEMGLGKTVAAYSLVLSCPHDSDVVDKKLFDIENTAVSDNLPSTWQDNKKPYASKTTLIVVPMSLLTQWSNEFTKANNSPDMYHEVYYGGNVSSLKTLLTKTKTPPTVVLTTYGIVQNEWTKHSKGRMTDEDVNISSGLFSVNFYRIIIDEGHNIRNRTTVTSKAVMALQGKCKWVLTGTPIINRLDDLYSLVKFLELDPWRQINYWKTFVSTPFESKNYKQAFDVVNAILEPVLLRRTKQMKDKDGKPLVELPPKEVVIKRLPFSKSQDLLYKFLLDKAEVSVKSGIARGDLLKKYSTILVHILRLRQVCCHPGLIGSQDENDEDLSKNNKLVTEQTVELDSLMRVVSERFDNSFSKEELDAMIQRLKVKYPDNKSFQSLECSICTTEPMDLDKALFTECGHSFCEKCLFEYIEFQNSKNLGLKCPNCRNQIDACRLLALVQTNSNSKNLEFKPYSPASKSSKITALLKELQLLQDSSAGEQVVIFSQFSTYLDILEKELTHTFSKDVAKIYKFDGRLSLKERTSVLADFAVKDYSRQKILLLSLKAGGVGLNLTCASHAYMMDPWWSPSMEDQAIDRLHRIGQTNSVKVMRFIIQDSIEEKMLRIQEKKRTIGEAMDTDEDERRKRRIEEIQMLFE
Description: SEC-MALS; multi-angle light scattering of purified Rad5 with an A280 trace; molar mass of peak 1 compared with the expected mass of the monomer; conditions not given; both purified. The conditions noted are these: remark: other sources report otherwise.

These are yes or no findings as the source states them, for the method shown.

Drawing on publication PMC6799953, this text covers binding for 1 molecule.

B1: Rad5, P32849 1-1169 (enzyme)
chain: MSHIEQEERKRFFNDDLDTSETSLNFKSENKESFLFANSHNDDDDDVVVSVSDTTEGEGDRSIVPVRREIEEEGQNQFITELLRIIPEMPKDLVMELNEKFGSQEEGLSLALSHYFDHNSGTSISKIPSSPNQLNTLSDTSNSTLSPSSFHPKRRRIYGFRNQTRLEDKVTWKRFIGALQVTGMATRPTVRPLKYGSQMKLKRSSEEISATKVYDSRGRKKASMASLVRIFDIQYDREIGRVSEDIAQILYPLLSSHEISFEVTLIFCDNKRLSIGDSFILQLDCFLTSLIFEERNDGESLMKRRRTEGGNKREKDNGNFGRTLTETDEELESRSKRLALLKLFDKLRLKPILDEQKALEKHKIELNSDPEIIDLDNDEICSNQVTEVHNNLRDTQHEEETMNLNQLKTFYKAAQSSESLKSLPETEPSRDVFKLELRNYQKQGLTWMLRREQEFAKAASDGEASETGANMINPLWKQFKWPNDMSWAAQNLQQDHVNVEDGIFFYANLHSGEFSLAKPILKTMIKGGILSDEMGLGKTVAAYSLVLSCPHDSDVVDKKLFDIENTAVSDNLPSTWQDNKKPYASKTTLIVVPMSLLTQWSNEFTKANNSPDMYHEVYYGGNVSSLKTLLTKTKTPPTVVLTTYGIVQNEWTKHSKGRMTDEDVNISSGLFSVNFYRIIIDEGHNIRNRTTVTSKAVMALQGKCKWVLTGTPIINRLDDLYSLVKFLELDPWRQINYWKTFVSTPFESKNYKQAFDVVNAILEPVLLRRTKQMKDKDGKPLVELPPKEVVIKRLPFSKSQDLLYKFLLDKAEVSVKSGIARGDLLKKYSTILVHILRLRQVCCHPGLIGSQDENDEDLSKNNKLVTEQTVELDSLMRVVSERFDNSFSKEELDAMIQRLKVKYPDNKSFQSLECSICTTEPMDLDKALFTECGHSFCEKCLFEYIEFQNSKNLGLKCPNCRNQIDACRLLALVQTNSNSKNLEFKPYSPASKSSKITALLKELQLLQDSSAGEQVVIFSQFSTYLDILEKELTHTFSKDVAKIYKFDGRLSLKERTSVLADFAVKDYSRQKILLLSLKAGGVGLNLTCASHAYMMDPWWSPSMEDQAIDRLHRIGQTNSVKVMRFIIQDSIEEKMLRIQEKKRTIGEAMDTDEDERRKRRIEEIQMLFE
Regarding B1, the binding entry is on record as “no binding”.
